# Reference: PubChem BioAssay AID504444 (National Center for Advancing Translational Sciences (NCATS), 2011)
# The campaign covered roughly 360,000 compounds. About 7,500 (2.1%) were called active. Inconclusive results, whose numbers are uncertain, are shown with a selection of clear calls. Calls follow the shape of the dose curve; as a rule, active = well fitted inhibition curve with a large enough effect; inconclusive = small, poorly fitted or top-dose-only effect, or effect the other way; inactive = flat fitted curve, though single readings scatter. Potencies of inconclusive entries are doubtful fits and often do not repeat.
# Test: Nrf2 qHTS screen for inhibitors; also: nearly all actives have a fitted effect of over 60% in size
# Details: A549 ARE-Fluc reporter, luciferase luminescence, 18-24 h; activity change, negative = inhibition: at 46 µM (top of the series)
# Procedure, shortened: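 Reporter: ARE-Fluc in A549. Exposure: 18-24 h, 37 °C, 5% CO2, 5% FBS OPTI-MEM. Readouts: fluorescent cytotoxicity (CellTiter-Fluor), then luminescent Nrf2 signal after BugLite.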
# % is scaled to controls: 0 for no effect and ±100 for the full control effect; potency is read from the fitted curve at half-maximal effect.
Structure (SMILES),Potency,"activity change, negative = inhibition"
Cc1ccc(Cl)cc1N1CCN(C(=O)COc2ccc(S(=O)(=O)NC(C)C)cc2)CC1,active: 20.6 µM,
NS(=O)(=O)c1ccc2nc(NC(=O)C3CCCO3)sc2c1 (stereo unspecified),"inconclusive: 29.1 µM [activator, single point]",
CN1CCN(C(=O)c2cc(Br)cn2C)CC1,"inconclusive: 3.26 µM [activator, full curve, poor fit]",
Cc1nc(-c2cccnc2)sc1C(=O)Nc1ccc(C(F)(F)F)cc1,"inconclusive: 16.4 µM [falling, single point]",
CCc1ccc2ncc3c(-c4ccc(F)cc4)nn(CC(=O)NCc4ccccc4)c3c2c1,inactive,
Cc1ccc(CN(Cc2cccnc2)C(=S)Nc2cccc(Cl)c2C)cc1,"inconclusive: 23.1 µM [falling, single point]",
CC(C)CC(C(=O)NCc1ccc(F)cc1)N1Cc2ccccc2C1=O (stereo unspecified),"inconclusive: 1.3 µM [activator, full curve, poor fit]",
N/C(=N\OC(=O)c1ccncc1)c1cccc([N+](=O)[O-])c1,"inconclusive: 20.6 µM [activator, partial curve, poor fit]",
CCOc1ccc(NS(=O)(=O)c2cc3c(cc2C)N(C)CCO3)cc1,"inconclusive: 32.6 µM [falling, single point]",
COc1ccccc1NCc1cccn1-c1nnc(N2CCOCC2)s1,"inconclusive: 11.6 µM [activator, partial curve]",
Cc1cc(C)cc(OC(=O)CS(=O)c2ccc(C(F)(F)F)cc2[N+](=O)[O-])c1 (stereo unspecified),"inconclusive: 20.6 µM [falling, single point]",
Cc1nc2c3cnn(-c4ccc(C)c(C)c4)c3ncn2n1,"inconclusive: 1.46 µM [activator, partial curve]",
O=C(N[C@H]1C/C=C\C(c2cccc(F)c2)N(Cc2ccccc2)C(=O)C1)OCC1c2ccccc2-c2ccccc21 (stereo partly specified),inactive,
Cc1ccc(C)c(CN2C(=O)CSc3ccc(C(=O)NCc4ccc(F)cc4)cc32)c1,,inactive: 5.74% [at 9.27 µM]
COc1ccccc1N1CCN(CC(=O)Nc2ccc3c(c2)OCCO3)CC1,"inconclusive: 3.66 µM [falling, partial curve, poor fit]",
Cc1cc(C)cc(N2C(=O)CSC23C(=O)N(CC(=O)NCCc2ccccc2)c2ccccc23)c1 (stereo unspecified),inactive,
Cc1noc(C)c1S(=O)(=O)Nc1cccc(C(F)(F)F)c1,"inconclusive: 29.1 µM [falling, partial curve, poor fit]",
O=C(O)C1=C[C@@H](c2coc3ccccc3c2=O)C[C@@H](OCCCCO)O1,"inconclusive: 7.31 µM [activator, partial curve, poor fit]",
Cc1ccc(C(=O)COC(=O)c2cc(=O)[nH]c3ccccc23)cc1,"inconclusive: 0.82 µM [activator, full curve]",
CCOC(=O)C1=C(CS(=O)(=O)c2ccc(C)cc2)NC(=O)NC1c1ccc(C(C)C)cc1 (stereo unspecified),active: 18.4 µM,
N#Cc1ccccc1Sc1ccccc1C(=O)N1CCOCC1,"inconclusive: 16.4 µM [activator, partial curve, poor fit]",
O=C(COc1ccc(F)cc1)Nc1cc(S(=O)(=O)N2CCCCC2)ccc1N1CCCCC1,"inconclusive: 16.4 µM [falling, partial curve, poor fit]",

# Sorted by molar mass (largest number first): 4 of the compounds above
Structure (SMILES),Potency,"activity change, negative = inhibition"
O=C(N[C@H]1C/C=C\C(c2cccc(F)c2)N(Cc2ccccc2)C(=O)C1)OCC1c2ccccc2-c2ccccc21 (stereo partly specified),inactive,
COc1ccccc1NCc1cccn1-c1nnc(N2CCOCC2)s1,"inconclusive: 11.6 µM [activator, partial curve]",
N/C(=N\OC(=O)c1ccncc1)c1cccc([N+](=O)[O-])c1,"inconclusive: 20.6 µM [activator, partial curve, poor fit]",
Cc1nc2c3cnn(-c4ccc(C)c(C)c4)c3ncn2n1,"inconclusive: 1.46 µM [activator, partial curve]",

# Remaining list, next part:

Structure (SMILES),Potency,"activity change, negative = inhibition"
COc1ccc(NC(=O)CCS(=O)(=O)c2cccc3nonc23)cc1Cl,"inconclusive: 6.51 µM [falling, partial curve, poor fit]",
COCCN1C(=O)C(CC(=O)Nc2ccc(C(C)=O)cc2)SC1=Nc1ccccc1 (stereo unspecified),inactive,
CCC(C(=O)NCc1ccco1)N(C(=O)CNS(=O)(=O)c1ccc(C)cc1)c1ccccc1F (stereo unspecified),inactive,
CCSc1nc2ccccc2n1Cc1cccc([N+](=O)[O-])c1,"inconclusive: 29.1 µM [falling, single point]",
CC(C)Cn1cnc2c(SCc3ccccc3Cl)nc(N)nc21,inactive,
O=C(O)C1CCCN1c1nc(-c2ccc(Cl)c(Cl)c2)cc(C(F)(F)F)n1 (stereo unspecified),active: 7.31 µM,
CC(NC(=O)Cn1ncc(Cl)c(Cl)c1=O)C12CC3CC(CC(C3)C1)C2 (stereo unspecified),inactive,
CC(=NNC(=O)c1cccc(S(=O)(=O)N2CCOCC2)c1)c1ccccc1,"inconclusive: 4.61 µM [activator, partial curve]",
CCOc1ccc2nc(N3CCCC(C(=O)NCCCN4C(C)CCCC4C)C3)sc2c1 (stereo unspecified),"inconclusive: 29.1 µM [activator, single point]",
CC(C)c1nc(NCc2ccccc2)c(C#N)c2c1CCCC2,"inconclusive: 8.2 µM [activator, partial curve, poor fit]",
COc1ccccc1NC(=O)c1cc(-c2ccc(C)o2)nc2ccccc12,"inconclusive: 9.2 µM [falling, partial curve, poor fit]",
COc1ccc(C(CC(=O)O)c2ccc3c(c2)OCO3)cc1 (stereo unspecified),inactive,
O=C(CCCN1C(=O)/C(=C\c2cccs2)SC1=S)NNC(=O)c1cccnc1,"inconclusive: 2.06 µM [activator, full curve, poor fit]",
Cc1cc(C)c2c(CC(=O)Nc3ccc(Cl)cn3)coc2c1,"inconclusive: 16.4 µM [falling, partial curve]",
Cc1cc(OCC(=O)Nc2ccc(N3CCN(C)CC3)cc2)ccc1Cl,"inconclusive: 20.6 µM [activator, partial curve, poor fit]",
Cc1cc(C(=O)NC2CC(C)(C)Cc3c2cnn3-c2cccc(F)c2)n(C)n1 (stereo unspecified),"inconclusive: 29.1 µM [falling, single point]",
Cc1ccc(C(=O)Nc2nnc(-c3cccs3)s2)cc1C,"inconclusive: 0.58 µM [activator, partial curve, poor fit]",
Cc1cc(=O)[nH]c(SCc2nc3ncccn3c2Br)n1,inactive,
COc1ccc2c(Cl)c(C(=O)NN)sc2c1,active: 14.6 µM,
CCOC(=O)c1c(NC(=O)/C=C/c2ccc3c(c2)OCO3)sc(C)c1CC,"inconclusive: 32.6 µM [falling, single point]",
CN(C(=O)c1cccc(NC(=O)Cc2ccc(NC(=O)C3CCCN(S(=O)(=O)c4cccc([N+](=O)[O-])c4)C3)cc2)c1)C1CCCCC1 (stereo unspecified),inactive,
CCOC(=O)c1ccc2c(c1)nc(-c1ccc(F)cc1)c1nccn12,"inconclusive: 1.84 µM [activator, partial curve, poor fit]",

Structure (SMILES),Potency,"activity change, negative = inhibition"
Nc1cccc2nc3ccccc3cc12,"inconclusive: 4.61 µM [falling, single point]",
CSc1nnc(C(C)(C)C)c(=O)n1/N=C/c1ccc(C(C)C)cc1,"inconclusive: 16.4 µM [activator, single point]",
CN(C(=O)CSc1nnnn1-c1ccccc1)C1CCCCC1,"inconclusive: 9.2 µM [activator, partial curve]",
CCCc1ccc(C(C)NC(=O)c2cnccn2)cc1 (stereo unspecified),"inconclusive: 11.6 µM [falling, partial curve, poor fit]",
CCCCC(c1nnnn1CC1CCCO1)N1CCN(c2cc(Cl)ccc2C)CC1 (stereo unspecified),"inconclusive: 16.4 µM [falling, single point]",
Cc1cc(NC(=O)c2ccccc2C)n(-c2cccc(F)c2)n1,"inconclusive: 14.6 µM [activator, partial curve, poor fit]",
O=C(/C=C/Nc1ccc(Nc2ccccc2)cc1)c1cccs1,"inconclusive: 29.1 µM [activator, single point]",
CC(NC(=S)NCc1ccc(F)cc1)C12CC3CC(CC(C3)C1)C2 (stereo unspecified),"inconclusive: 29.1 µM [falling, single point]",
O=S(=O)(CCc1nc2ccccc2s1)c1ccc(Cl)cc1,"inconclusive: 5.8 µM [falling, single point]",
O=C(OCC(=O)N1CCCC1)c1cccs1,"inconclusive: 2.91 µM [activator, full curve]",
CNc1ccccc1C(=O)OC(C)C(=O)Nc1ccc(Cl)cn1 (stereo unspecified),inactive,
COc1ccc(OC)c(NC(=O)C2CCC(CNc3c(N4CCC(C)CC4)c(=O)c3=O)CC2)c1 (stereo unspecified),"inconclusive: 1.64 µM [falling, partial curve, poor fit]",
COc1ccccc1NS(=O)(=O)c1ccc(Cl)c(NC(=S)NC(=O)C2CCCC2)c1,"inconclusive: 18.4 µM [falling, single point]",
Cc1ccc(-c2nnc(SCC(=O)N/N=C/c3ccc(C)s3)n2-c2ccc(C)cc2)cc1,active: 20.6 µM,
Cc1ccccc1Cn1c([N+](=O)[O-])cnc1C,"inconclusive: 6.51 µM [activator, single point]",
S=c1[nH]c2ccc(Cc3ccc4[nH]c(=S)[nH]c4c3)cc2[nH]1,inactive,
COCc1nnc(NS(=O)(=O)c2ccc(Br)cc2)s1,"inconclusive: 3.26 µM [activator, partial curve]",
CCc1ccc2occ(CC(=O)Nc3c(C(=O)Nc4ccc(C)cc4)oc4ccccc34)c2c1,"inconclusive: 18.4 µM [falling, single point]",
O=C(Oc1cccnc1)c1ccc([N+](=O)[O-])cc1,inactive,
COC(=O)c1c(SCC(=O)Nc2cc(C)cc(C)c2)[nH]c2ccccc2c1=O,"inconclusive: 23.1 µM [falling, single point]",
O=C(Nc1nnc(CSCc2ccccc2F)s1)c1cccc([N+](=O)[O-])c1,"inconclusive: 32.6 µM [falling, single point]",
CCN(CC)CCNC(=O)CSc1c2c(nc3cc(Cl)ccc13)CCCC2,inactive,
